Data from paper PMC6834663.
These are yes or no findings as the source states them, for the method shown. In cells and extracts the contact can be indirect. Some binding calls cover weakened binding; strength is not graded here. For part of these data: Where a sequence is shown, tags or fusion partners need not be part of it.

Amino acid sequences for entries named in this document (tags omitted).
UniProt P08047: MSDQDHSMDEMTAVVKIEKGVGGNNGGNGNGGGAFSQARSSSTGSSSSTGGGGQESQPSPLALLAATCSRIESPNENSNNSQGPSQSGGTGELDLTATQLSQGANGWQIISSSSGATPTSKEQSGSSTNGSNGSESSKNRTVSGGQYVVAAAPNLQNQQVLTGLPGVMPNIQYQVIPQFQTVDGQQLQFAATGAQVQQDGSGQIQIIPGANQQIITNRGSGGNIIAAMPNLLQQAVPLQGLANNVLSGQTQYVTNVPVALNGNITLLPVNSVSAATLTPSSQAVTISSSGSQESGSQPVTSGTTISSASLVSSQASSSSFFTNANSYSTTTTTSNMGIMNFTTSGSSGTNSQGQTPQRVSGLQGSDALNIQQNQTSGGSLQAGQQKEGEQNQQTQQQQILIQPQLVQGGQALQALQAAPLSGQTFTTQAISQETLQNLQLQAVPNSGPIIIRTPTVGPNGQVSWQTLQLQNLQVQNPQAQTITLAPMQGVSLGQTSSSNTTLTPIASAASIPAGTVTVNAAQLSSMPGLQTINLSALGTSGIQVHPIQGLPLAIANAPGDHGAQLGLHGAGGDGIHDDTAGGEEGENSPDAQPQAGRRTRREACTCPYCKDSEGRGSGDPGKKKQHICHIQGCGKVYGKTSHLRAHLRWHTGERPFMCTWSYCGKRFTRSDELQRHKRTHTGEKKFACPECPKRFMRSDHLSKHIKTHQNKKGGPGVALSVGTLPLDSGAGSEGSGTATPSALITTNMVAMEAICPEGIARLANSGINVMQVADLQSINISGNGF
UniProt Q16665: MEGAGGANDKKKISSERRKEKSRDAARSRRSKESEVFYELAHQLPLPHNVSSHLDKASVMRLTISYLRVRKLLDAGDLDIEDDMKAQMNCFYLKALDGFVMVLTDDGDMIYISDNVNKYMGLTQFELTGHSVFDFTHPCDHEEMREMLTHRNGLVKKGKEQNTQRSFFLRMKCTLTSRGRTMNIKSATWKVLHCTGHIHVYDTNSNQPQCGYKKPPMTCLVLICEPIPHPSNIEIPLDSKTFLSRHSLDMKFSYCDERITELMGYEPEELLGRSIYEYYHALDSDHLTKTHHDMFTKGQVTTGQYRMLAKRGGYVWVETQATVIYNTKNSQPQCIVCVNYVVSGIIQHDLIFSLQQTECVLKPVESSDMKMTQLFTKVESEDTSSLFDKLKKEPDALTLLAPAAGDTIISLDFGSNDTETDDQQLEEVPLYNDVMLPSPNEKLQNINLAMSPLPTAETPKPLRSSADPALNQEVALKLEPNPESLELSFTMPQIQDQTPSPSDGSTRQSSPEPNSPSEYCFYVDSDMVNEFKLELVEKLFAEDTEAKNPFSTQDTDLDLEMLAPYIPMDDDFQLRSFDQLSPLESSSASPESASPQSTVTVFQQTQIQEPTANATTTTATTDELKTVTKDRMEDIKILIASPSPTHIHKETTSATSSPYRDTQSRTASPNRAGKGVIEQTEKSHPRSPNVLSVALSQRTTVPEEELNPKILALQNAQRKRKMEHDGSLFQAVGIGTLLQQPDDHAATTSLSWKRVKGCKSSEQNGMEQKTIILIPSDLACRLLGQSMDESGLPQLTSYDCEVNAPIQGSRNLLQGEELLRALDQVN
UniProt P51532: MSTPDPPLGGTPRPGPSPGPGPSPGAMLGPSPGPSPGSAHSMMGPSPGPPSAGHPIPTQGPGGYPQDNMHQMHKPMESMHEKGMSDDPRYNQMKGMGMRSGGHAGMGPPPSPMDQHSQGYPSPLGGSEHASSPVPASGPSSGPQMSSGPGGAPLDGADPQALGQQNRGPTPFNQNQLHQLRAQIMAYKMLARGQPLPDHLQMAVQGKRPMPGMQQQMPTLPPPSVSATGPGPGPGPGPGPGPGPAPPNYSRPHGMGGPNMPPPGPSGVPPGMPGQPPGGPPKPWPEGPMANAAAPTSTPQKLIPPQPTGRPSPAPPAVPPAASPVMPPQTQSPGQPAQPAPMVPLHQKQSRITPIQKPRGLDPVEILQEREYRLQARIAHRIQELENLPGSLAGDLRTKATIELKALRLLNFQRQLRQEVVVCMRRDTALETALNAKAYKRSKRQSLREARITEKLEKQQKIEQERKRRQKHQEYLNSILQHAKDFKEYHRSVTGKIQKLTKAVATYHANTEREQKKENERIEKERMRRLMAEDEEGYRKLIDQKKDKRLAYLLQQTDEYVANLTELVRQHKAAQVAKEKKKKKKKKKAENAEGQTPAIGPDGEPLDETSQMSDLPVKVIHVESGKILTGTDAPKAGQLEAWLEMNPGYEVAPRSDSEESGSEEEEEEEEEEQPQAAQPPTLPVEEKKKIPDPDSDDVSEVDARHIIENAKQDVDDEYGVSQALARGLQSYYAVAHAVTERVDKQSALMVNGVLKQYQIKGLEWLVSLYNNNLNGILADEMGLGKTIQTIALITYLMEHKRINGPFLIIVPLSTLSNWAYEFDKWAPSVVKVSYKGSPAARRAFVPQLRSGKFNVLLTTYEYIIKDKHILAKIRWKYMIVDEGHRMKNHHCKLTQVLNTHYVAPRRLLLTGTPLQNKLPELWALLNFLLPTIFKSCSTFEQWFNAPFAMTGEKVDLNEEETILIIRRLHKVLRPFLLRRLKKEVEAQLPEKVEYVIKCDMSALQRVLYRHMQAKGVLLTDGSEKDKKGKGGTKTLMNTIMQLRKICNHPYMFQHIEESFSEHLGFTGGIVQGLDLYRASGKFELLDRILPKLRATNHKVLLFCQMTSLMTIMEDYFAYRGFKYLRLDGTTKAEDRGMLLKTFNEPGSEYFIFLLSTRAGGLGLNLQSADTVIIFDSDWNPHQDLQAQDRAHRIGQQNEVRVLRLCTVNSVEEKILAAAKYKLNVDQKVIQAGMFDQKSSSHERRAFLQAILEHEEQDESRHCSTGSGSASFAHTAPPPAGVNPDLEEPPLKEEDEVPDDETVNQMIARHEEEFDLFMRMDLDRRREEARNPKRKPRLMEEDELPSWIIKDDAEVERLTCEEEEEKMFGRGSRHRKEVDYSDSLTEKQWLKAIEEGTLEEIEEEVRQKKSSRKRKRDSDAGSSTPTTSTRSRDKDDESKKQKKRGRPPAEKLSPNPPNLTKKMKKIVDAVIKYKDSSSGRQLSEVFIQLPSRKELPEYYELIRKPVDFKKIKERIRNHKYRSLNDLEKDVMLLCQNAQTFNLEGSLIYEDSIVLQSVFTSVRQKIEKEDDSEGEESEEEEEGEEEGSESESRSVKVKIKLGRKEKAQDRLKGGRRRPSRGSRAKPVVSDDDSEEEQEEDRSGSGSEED

Assays:
Assay in all cases: co-IP; tagged proteins co-transfected into HEK293 cells; whole-cell lysates in RIPA buffer (50 mM Tris pH 7.4, 150 mM NaCl, 1% Triton X-100); specific antibodies or pre-immune IgG overnight, Protein A/G-plus Agarose beads; Western blot
Myc-tagged KDM3A = target: T1, Myc-tagged KDM3A (UniProt Q9Y4C1)
T1 sequence: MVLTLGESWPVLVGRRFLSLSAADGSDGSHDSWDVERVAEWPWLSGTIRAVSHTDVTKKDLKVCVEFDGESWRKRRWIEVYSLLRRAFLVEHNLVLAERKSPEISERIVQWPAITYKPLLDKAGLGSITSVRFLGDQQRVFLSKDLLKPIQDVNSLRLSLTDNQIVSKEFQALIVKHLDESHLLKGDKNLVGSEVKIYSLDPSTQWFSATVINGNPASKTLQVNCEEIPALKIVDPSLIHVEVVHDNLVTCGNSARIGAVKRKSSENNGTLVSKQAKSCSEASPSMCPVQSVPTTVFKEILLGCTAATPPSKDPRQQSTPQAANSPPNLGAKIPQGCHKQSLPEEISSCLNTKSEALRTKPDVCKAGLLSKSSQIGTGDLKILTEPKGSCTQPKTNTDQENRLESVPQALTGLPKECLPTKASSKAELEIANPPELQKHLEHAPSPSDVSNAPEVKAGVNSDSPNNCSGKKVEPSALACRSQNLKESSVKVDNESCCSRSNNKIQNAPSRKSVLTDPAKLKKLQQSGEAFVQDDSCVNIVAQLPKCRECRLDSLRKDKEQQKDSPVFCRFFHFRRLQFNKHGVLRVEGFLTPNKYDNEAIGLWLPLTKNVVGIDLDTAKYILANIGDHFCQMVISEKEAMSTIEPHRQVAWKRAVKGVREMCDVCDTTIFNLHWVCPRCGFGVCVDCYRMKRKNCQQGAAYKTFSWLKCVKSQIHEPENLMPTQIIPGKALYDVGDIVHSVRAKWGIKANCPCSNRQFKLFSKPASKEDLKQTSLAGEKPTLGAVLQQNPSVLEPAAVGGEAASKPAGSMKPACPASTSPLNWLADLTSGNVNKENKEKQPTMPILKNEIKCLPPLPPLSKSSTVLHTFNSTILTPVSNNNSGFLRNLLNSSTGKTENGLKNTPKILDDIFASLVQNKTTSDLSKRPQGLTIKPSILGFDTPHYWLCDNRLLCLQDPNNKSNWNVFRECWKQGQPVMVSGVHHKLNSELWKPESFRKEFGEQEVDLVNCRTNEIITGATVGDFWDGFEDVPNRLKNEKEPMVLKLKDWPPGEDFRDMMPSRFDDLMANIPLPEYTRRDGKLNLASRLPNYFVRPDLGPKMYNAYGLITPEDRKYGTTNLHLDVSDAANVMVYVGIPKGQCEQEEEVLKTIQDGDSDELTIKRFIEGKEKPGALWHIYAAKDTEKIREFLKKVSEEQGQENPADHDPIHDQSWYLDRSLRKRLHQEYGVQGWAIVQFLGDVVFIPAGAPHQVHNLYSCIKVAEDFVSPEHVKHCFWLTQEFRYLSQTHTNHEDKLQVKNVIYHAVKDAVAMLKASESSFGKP

His-tagged Sp1 = His-tagged Sp1 (UniProt P08047)
GFP-tagged HIF-1α = GFP-tagged HIF-1α (UniProt Q16665)

binding (Myc-tagged KDM3A): binds
binding (His-tagged Sp1): binds
binding (GFP-tagged HIF-1α): binds
Substance: HA-tagged BRG1 (Brahma related gene 1) (from UniProt P51532 1-1647)
